The supplement of paper PMC10849652
Some of the results follow.

Amino acid sequences for entries named in this document (tags omitted). A change or cut given only in a name is not applied to a line headed by its entry.
UniProt P04844: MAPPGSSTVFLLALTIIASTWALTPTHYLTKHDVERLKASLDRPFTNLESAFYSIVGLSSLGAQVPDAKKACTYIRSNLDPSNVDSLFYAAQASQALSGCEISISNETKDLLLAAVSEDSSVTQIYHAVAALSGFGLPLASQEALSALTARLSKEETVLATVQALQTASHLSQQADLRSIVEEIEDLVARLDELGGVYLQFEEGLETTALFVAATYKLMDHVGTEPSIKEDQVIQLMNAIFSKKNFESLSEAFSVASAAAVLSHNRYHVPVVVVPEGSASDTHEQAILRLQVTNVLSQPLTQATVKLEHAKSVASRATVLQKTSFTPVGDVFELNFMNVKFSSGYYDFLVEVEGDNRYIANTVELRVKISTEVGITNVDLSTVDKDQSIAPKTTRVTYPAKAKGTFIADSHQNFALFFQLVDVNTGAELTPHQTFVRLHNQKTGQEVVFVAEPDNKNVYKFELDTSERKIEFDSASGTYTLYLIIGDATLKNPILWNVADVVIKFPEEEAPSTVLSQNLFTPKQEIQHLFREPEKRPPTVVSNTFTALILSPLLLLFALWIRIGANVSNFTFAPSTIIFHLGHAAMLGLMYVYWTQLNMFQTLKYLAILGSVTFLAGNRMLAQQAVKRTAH
UniProt P27694, whole entry, looked up: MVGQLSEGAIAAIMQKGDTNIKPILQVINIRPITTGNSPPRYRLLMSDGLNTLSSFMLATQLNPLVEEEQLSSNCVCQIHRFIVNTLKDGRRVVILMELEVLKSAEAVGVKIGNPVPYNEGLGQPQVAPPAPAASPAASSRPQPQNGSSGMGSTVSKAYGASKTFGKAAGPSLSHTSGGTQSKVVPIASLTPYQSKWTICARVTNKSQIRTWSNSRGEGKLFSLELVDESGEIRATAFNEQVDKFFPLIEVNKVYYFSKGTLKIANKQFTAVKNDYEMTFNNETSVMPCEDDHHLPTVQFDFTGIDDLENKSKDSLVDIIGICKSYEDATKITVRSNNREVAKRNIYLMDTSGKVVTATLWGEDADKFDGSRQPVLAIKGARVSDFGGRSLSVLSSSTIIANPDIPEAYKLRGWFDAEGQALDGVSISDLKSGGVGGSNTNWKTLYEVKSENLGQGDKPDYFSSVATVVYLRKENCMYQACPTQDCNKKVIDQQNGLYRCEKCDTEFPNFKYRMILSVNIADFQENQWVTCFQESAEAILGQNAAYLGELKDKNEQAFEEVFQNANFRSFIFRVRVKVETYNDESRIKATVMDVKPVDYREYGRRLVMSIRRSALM
UniProt Q96S38: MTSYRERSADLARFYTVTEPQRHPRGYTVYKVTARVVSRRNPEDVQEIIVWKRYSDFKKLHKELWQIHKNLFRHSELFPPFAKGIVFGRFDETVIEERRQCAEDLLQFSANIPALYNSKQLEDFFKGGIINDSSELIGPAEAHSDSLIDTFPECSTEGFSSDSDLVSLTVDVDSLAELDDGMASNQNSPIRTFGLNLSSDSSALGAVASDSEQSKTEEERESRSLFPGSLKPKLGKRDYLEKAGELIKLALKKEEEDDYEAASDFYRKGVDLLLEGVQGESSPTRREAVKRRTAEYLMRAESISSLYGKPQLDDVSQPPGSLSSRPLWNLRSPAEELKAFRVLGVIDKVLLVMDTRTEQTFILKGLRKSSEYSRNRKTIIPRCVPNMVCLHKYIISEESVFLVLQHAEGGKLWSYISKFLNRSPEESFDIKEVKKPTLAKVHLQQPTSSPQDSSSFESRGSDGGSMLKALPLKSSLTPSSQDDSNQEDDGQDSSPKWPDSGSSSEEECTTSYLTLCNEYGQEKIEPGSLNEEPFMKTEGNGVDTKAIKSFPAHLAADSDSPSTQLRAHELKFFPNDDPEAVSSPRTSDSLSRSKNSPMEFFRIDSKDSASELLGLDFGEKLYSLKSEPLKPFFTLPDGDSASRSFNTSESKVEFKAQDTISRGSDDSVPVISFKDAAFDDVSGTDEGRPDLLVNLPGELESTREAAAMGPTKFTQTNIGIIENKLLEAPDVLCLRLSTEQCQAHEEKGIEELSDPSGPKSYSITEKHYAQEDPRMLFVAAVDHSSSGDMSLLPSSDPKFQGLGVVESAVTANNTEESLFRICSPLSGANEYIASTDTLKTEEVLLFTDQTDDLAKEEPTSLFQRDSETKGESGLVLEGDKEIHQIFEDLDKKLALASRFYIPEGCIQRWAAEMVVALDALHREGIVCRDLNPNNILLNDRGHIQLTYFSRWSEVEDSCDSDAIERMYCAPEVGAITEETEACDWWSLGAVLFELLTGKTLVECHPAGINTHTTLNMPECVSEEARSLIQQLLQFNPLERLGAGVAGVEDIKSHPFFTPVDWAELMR
UniProt Q01974, whole entry, looked up: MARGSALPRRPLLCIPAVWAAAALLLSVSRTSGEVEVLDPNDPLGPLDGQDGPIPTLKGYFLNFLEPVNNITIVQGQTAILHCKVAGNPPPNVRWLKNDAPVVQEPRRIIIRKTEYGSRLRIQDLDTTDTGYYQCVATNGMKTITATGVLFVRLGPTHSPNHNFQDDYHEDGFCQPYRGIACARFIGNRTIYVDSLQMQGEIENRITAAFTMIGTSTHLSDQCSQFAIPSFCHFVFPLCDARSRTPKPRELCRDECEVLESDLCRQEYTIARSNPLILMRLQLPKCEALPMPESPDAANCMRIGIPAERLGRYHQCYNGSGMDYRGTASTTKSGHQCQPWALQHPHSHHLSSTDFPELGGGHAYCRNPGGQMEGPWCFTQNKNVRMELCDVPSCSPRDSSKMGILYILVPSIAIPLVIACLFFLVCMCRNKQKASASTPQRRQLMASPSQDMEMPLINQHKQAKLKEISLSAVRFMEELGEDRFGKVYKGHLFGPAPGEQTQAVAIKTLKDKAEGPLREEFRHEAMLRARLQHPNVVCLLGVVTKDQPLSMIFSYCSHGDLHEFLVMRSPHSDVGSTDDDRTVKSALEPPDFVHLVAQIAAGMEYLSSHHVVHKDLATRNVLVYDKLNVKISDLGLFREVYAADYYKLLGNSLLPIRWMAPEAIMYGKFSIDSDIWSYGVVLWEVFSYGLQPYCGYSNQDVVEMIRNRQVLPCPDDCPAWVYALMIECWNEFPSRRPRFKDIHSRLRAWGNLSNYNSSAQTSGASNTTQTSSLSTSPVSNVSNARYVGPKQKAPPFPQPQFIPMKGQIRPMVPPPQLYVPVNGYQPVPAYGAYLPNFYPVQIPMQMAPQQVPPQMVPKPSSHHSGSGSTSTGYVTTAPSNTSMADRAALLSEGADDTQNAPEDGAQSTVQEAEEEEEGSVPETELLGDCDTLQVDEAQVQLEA
UniProt Q7LG56, whole entry, looked up: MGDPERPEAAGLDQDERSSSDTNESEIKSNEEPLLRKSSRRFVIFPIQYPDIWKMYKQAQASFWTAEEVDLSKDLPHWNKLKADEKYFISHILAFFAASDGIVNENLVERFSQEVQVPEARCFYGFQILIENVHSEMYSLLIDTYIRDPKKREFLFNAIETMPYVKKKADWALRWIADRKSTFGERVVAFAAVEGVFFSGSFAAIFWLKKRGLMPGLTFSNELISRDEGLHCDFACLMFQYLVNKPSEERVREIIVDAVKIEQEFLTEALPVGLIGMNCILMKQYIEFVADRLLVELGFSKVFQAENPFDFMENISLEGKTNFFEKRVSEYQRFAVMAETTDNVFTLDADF
UniProt P35244: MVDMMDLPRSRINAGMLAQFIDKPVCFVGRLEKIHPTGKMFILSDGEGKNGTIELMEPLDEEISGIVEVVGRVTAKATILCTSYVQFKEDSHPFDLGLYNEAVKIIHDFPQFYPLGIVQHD
UniProt Q9BUL9: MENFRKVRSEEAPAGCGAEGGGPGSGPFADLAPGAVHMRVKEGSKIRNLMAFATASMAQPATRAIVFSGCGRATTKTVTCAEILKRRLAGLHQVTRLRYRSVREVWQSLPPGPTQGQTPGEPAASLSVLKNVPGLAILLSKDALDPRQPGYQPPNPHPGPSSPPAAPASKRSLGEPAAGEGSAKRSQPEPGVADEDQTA
UniProt P15927: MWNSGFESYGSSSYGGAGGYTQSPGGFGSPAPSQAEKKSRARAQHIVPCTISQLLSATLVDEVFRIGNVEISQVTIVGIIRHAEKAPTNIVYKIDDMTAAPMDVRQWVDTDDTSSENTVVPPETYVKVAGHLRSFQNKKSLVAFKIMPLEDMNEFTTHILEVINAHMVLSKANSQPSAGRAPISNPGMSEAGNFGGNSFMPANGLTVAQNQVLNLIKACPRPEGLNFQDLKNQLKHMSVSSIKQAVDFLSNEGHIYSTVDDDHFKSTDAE
UniProt Q8TA86: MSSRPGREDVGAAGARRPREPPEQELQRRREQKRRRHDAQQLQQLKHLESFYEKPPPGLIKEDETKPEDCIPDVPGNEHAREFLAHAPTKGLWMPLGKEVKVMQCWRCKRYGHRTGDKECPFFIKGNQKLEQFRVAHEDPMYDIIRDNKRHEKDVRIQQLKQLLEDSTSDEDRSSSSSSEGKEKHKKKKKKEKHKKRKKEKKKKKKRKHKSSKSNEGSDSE
UniProt Q9UBF6, whole entry, looked up: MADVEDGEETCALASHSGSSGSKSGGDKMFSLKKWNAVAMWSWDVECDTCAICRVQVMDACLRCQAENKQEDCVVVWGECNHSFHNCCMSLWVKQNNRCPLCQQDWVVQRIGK
UniProt P62070: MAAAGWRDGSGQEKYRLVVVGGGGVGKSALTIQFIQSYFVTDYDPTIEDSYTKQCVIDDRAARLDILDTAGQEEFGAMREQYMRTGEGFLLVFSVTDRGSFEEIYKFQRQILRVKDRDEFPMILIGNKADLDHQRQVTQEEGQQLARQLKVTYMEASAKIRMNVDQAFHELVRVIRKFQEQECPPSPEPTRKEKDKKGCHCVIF
UniProt Q92901: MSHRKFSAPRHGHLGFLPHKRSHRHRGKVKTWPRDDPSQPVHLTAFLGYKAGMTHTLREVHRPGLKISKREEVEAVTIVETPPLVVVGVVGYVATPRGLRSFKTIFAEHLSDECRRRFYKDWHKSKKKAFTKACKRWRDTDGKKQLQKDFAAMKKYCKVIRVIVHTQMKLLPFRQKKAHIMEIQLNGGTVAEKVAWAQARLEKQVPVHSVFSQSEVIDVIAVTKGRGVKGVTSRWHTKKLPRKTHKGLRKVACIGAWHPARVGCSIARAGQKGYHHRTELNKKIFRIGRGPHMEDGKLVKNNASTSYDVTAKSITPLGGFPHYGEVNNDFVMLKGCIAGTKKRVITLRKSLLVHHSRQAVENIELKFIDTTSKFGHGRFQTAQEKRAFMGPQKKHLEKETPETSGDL
UniProt P60602: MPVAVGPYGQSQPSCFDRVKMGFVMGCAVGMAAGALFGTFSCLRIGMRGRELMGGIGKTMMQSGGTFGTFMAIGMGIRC
UniProt O75818: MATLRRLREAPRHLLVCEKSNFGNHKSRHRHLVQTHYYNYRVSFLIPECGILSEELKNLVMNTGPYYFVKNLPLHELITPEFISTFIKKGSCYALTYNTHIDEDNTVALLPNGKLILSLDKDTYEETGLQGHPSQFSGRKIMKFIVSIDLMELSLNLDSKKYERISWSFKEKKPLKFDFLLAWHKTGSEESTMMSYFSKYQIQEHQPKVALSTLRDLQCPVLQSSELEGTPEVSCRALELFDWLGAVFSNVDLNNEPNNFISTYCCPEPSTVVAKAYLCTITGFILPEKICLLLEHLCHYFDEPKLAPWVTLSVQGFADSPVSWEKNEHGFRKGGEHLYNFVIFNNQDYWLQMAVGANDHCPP

Compound: O=C(CCCCCCNC(=O)c1cnc(N(c2ccccc2)c2ccccc2Cl)nc1)NO [citarinostat]
Assay: log2 fold change, soluble protein after heating vs DMSO (PISA); higher = thermal stabilisation; K562 cells, 10 uM, 30 min; active = over 0.2 and 3.5 SD of the protein, either way, in both replicates (recomputed)
In short: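 Quantification of soluble protein used TMTpro 16plex LC-MS/MS, with channel sums equalised. Samples were the supernatant after 21,000xg for 90 min of pooled aliquots from K562 cells (2×10^6 cells/mL) treated with 10 μM compound for 30 min, heated for 3 min over 48°C-58°C, and extracted in PBS with 0.5% NP-40 at 4°C. Values, from duplicates, describe thermal stability against control samples on a log2 fold-change scale.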

log2 fold change, inactive:
RPN2 (UniProt P04844) 0.034
RPA1 (UniProt P27694) 0.079
RPS6KC1 (UniProt Q96S38) 0.016
ROR2 (UniProt Q01974) 0.078
RPL7A (UniProt P62424) -0.198
RPL26L1 (UniProt Q9UNX3) -0.184
RRM2B isoform 6 (UniProt Q7LG56) 0.025
RPS6 (UniProt P62753) -0.146
RPS7, A0A2R8Y623 -0.189
RPA3 (UniProt P35244) 0.1
RPP25 (UniProt Q9BUL9) -0.014
RPA2 isoform 3 (UniProt P15927) 0.053
RPS19 (UniProt P39019) -0.059
RPS20 isoform 2 (UniProt P60866) -0.091
RPL13A (UniProt P40429) -0.218
RP9 (UniProt Q8TA86) -0.029
RNF7 (UniProt Q9UBF6) -0.064
RPL3 (UniProt P39023) -0.228
RPS16 (UniProt P62249) -0.044
RRAS2 isoform 4 (UniProt P62070) 0.01
RPS2 (UniProt P15880) -0.079
RPL3L (UniProt Q92901) -0.251
RPL22 (UniProt P35268) -0.089
RPS29 (UniProt P62273) -0.213
RPL19 (UniProt P84098) -0.137
RPL14 (UniProt P50914) -0.214
RPL35 (UniProt P42766) -0.152
ROMO1 (UniProt P60602) 0.072
RPL37 (UniProt P61927) -0.109
RPL37A (UniProt P61513) -0.216
RPP40 (UniProt O75818) 0
RPL8 (UniProt P62917) -0.213

6 successive records already listed, quoted:
log2 fold change, inactive:
RPL13A (UniProt P40429) -0.218
RP9 (UniProt Q8TA86) -0.029
RNF7 (UniProt Q9UBF6) -0.064
RPL3 (UniProt P39023) -0.228
RPS16 (UniProt P62249) -0.044
RRAS2 isoform 4 (UniProt P62070) 0.01
